# Earlier results in patent publication US6780984B2, “Method for prognosing cancer and the proteins involved” (Northwestern University, priority 2000, dated 2004).
# B1: calreticulin: multi-functional Ca++ binding protein of the endoplasmic reticulum, human SEQ ID NO:36; overexpressed from pcDNA3.1/crt (protein)
# chain: MLLSVPLLLGLLGLAVAEPAVYFKEQFLDGDGWTSRWIESKHKSDFGKFVLSSGKFYGDEEKDKGLQTSQDARFYALSASFEPFSNKGQTLVVQFTVKHEQNIDCGGGYVKLFPNSLDQTDMHGDSEYNIMFGPDICGPGTKKVHVIFNYKGKNVLINKDIRCKDDEFTHLYTLIVRPDNTYEVKIDNSQVESGSLEDDWDFLPPKKIKDPDASKPEDWDERAKIDDPTDSKPEDWDKPEHIPDPDAKKPEDWDEEMDGEWEPPVIQNPEYKGEWKPRQIDNPDYKGTWIHPEIDNPEYSPDPSIYAYDNFGVLGLDLWQVKSGTIFDNFLITNDEAYAEEFGNETWGVTKAAEKQMKDKQDEEQRLKEEEEDKKRKEEEEAEDKEDDEDKDEDEEDEEDKEEDEEEDVPGQAKDEL
# Conditions: cited from earlier work
molecule,measurement,setting,value
B1,"Ca++ binding capacity, high capacity sites",C-Terminal Domain,approximately 25 mols Ca^((+))((+))/mol protein
same,"Ca++ binding capacity, low capacity site",Repeat A of the Proline-rich Domain,1 mol Ca^((+))((+))/mol of protein
